According to PubChem BioAssay AID330 (DTP/NCI, 2004):
The list is a part of this screen's results and no random one: it is rich in T/C values a quarter to a half above the control, in often repeated tests (any T/C) and in doses without a T/C. Other doses and runs of a compound stand elsewhere. T/C: endpoint of the treated group in % of that of the vehicle group. Some entries give survivors of the animals treated and no T/C: the source holds a T/C of zero for them, seemingly a mark for toxic or unscored doses. Some doses without a T/C left all or most animals alive at the check, yet need not have been tolerated: survival well below the control is almost never listed, so the zero probably covers shortened survival too. Survivors were counted at the toxicity check, usually on the fifth day, unless a day is given; later deaths do not show. Schedule codes are those of the source, read here as Q, the interval in days (D) or hours (H), X, the number of doses. Signs of the kind (2×) say how often a value occurs here. Where survival is the endpoint, the PubChem record calls one and a half times the control and up active, and a quarter to a half above the control has no call in these data; cut-offs in other NCI protocols can differ. Some entries were tested several times; the values are given in rising order. Some T/C values carry the count of animals alive at the toxicity check (mostly the fifth day); where none is given, no animal had died by that day.

Tested on: P388 leukemia ip, CD2F1 mice, survival T/C
Assay: NCI In Vivo Anticancer Drug Screen. Data for tumor model P388 Leukemia (intraperitoneal) in CD2F1 (CDF1) mice
Details: T/C endpoint: median survival time, higher T/C = longer survival
[1] = dose: 200.0 mg/kg/injection, schedule: Q01DX009 (ip), vehicle: saline with Tween-80
[2] = dose: 120.0 mg/kg/injection, schedule: Q01DX005 (ip), vehicle: saline with Tween-80
[3] = dose: 240.0 mg/kg/injection, schedule: Q01DX005 (ip), vehicle: saline with Tween-80
[4] = dose: 50.0 mg/kg/injection, schedule: Q04DX003 (ip), vehicle: saline with Tween-80
[5] = dose: 100.0 mg/kg/injection, schedule: Q04DX003 (ip), vehicle: saline with Tween-80
[6] = dose: 50.0 mg/kg/injection, schedule: Q01DX009 (ip), vehicle: saline
[7] = dose: 200.0 mg/kg/injection, schedule: Q01DX005 (ip), vehicle: Klucel (hydroxypropylcellulose) (HPC)
[8] = dose: 200.0 mg/kg/injection, schedule: Q01DX009 (ip), vehicle: saline

## N#CC(=C1SCS1)[N+](=O)[O-]
dose: 3.13 mg/kg/injection, schedule: Q01DX009 (ip), vehicle: saline
  T/C: 128 % of control
dose: 6.25 mg/kg/injection, schedule: Q01DX009 (ip), vehicle: saline with Tween-80
  T/C: 128 % of control
dose: 6.25 mg/kg/injection, schedule: Q01DX009 (ip), vehicle: saline
  survivor count: 4 of 6
dose: 12.5 mg/kg/injection, schedule: Q01DX009 (ip), vehicle: saline with Tween-80
  survivor count: 1 of 6
dose: 12.5 mg/kg/injection, schedule: Q01DX009 (ip), vehicle: saline
  survivor count: 3 of 6
dose: 50.0 mg/kg/injection, schedule: Q01DX009 (ip), vehicle: saline with Tween-80
  survivor count: 0 of 6
dose: 100.0 mg/kg/injection, schedule: Q01DX009 (ip), vehicle: saline with Tween-80
  survivor count: 0 of 6
[1]
  survivor count: 0 of 6

## N#CN=[N+]([O-])c1ccccc1Br
dose: 50.0 mg/kg/injection, schedule: Q04DX003 (ip), vehicle: Klucel (hydroxypropylcellulose) (HPC)
  survivor count: 6 of 6

## CN1CCC(c2ccccc2)(c2ccccc2)C(=O)C1
[1]
  survivor count: 3 of 6
dose: 400.0 mg/kg/injection, schedule: Q01DX009 (ip), vehicle: saline with Tween-80
  survivor count: 0 of 6 (2×)

## CC1OC(=Nc2ccccc2)NC1=O (stereo not drawn)
dose: 400.0 mg/kg/injection, schedule: Q01DX001 (ip), vehicle: saline with Tween-80
  survivor count: 5 of 6

## CC(O)C1/C=C/C=C\C(=O)O[C@@H]2C[C@H]3OC4C5OC5(C)CCC4(COC(=O)C4O[C@@]4(C)CCO1)[C@]2(C)[C@]31CO1 (stereo partly drawn)
dose: 5.0 mg/kg/injection, schedule: Q01DX009 (ip), vehicle: Klucel (hydroxypropylcellulose) (HPC)
  T/C: 128 % of control
dose: 10.0 mg/kg/injection, schedule: Q01DX009 (ip), vehicle: Klucel (hydroxypropylcellulose) (HPC)
  T/C: 129 % of control
dose: 20.0 mg/kg/injection, schedule: Q01DX009 (ip), vehicle: Klucel (hydroxypropylcellulose) (HPC)
  T/C: 126 % of control

## CNc1ccc2ccc(N(C)C)cc2n1
dose: 100.0 mg/kg/injection, schedule: Q04DX002 (ip), vehicle: Klucel (hydroxypropylcellulose) (HPC)
  survivor count: 2 of 6
dose: 200.0 mg/kg/injection, schedule: Q04DX002 (ip), vehicle: Klucel (hydroxypropylcellulose) (HPC)
  survivor count: 0 of 6
dose: 400.0 mg/kg/injection, schedule: Q04DX002 (ip), vehicle: Klucel (hydroxypropylcellulose) (HPC)
  survivor count: 0 of 6

## C[C@]12CCC(=O)N[C@@H]1CC[C@@H]1[C@@H]2CC[C@]2(C)[C@@H](OC(=O)COc3ccc(N(CCCl)CCCl)cc3)CC[C@@H]12
dose: 5.0 mg/kg/injection, schedule: Q01DX005 (ip), vehicle: saline with Tween-80
  T/C: 126 % of control
dose: 7.5 mg/kg/injection, schedule: Q01DX005 (ip), vehicle: saline with Tween-80
  T/C: 144 % of control
dose: 60.0 mg/kg/injection, schedule: Q01DX005 (ip), vehicle: saline with Tween-80
  survivor count: 6 of 6
[2]
  survivor count: 5 of 6
[3]
  survivor count: 0 of 6

## Cc1nc(N)nc(N)c1-c1ccc(Cl)c(Cl)c1
dose: 1.5 mg/kg/injection, schedule: Q01DX009 (ip), vehicle: saline with Tween-80
  T/C: 127 % of control
dose: 2.0 mg/kg/injection, schedule: Q01DX009 (sc), vehicle: other
  T/C: 127 % of control
dose: 3.0 mg/kg/injection, schedule: Q01DX009 (sc), vehicle: other
  T/C: 131 % of control
dose: 4.0 mg/kg/injection, schedule: Q01DX009 (sc), vehicle: other
  T/C: 127 % of control
dose: 5.0 mg/kg/injection, schedule: Q01DX009 (sc), vehicle: other
  T/C: 149 % of control
dose: 12.5 mg/kg/injection, schedule: Q04DX003 (ip), vehicle: saline with Tween-80
  T/C: 140 % of control
dose: 16.0 mg/kg/injection, schedule: Q01DX009 (ip), vehicle: saline
  survivor count: 5 of 6
dose: 40.0 mg/kg/injection, schedule: Q04DX002 (ip), vehicle: saline
  T/C: 148 % of control
dose: 50.0 mg/kg/injection, schedule: Q04DX002 (ip), vehicle: saline
  T/C: 127 % of control
[4]
  survivor count: 6 of 6
dose: 60.0 mg/kg/injection, schedule: Q04DX002 (ip), vehicle: saline
  T/C: 131 % of control [5 of 6 alive]
[5]
  survivor count: 6 of 6
dose: 200.0 mg/kg/injection, schedule: Q04DX003 (ip), vehicle: saline with Tween-80
  survivor count: 3 of 6

## COc1ccc(-n2c(C)c(COC(C)=O)c(COC(C)=O)c2C)cc1
[6]
  survivor count: 4 of 6

## CC1=C(C)C(=Nc2ccc(N(CCCl)CCCl)cc2)C=CC1=O
dose: 50.0 mg/kg/injection, schedule: Q01DX001 (ip), vehicle: Klucel (hydroxypropylcellulose) (HPC)
  T/C: 125 % of control [5 of 6 alive]
dose: 100.0 mg/kg/injection, schedule: Q01DX001 (ip), vehicle: Klucel (hydroxypropylcellulose) (HPC)
  T/C: 140 % of control
dose: 200.0 mg/kg/injection, schedule: Q01DX001 (ip), vehicle: Klucel (hydroxypropylcellulose) (HPC)
  T/C: 134 % of control
dose: 400.0 mg/kg/injection, schedule: Q01DX001 (ip), vehicle: Klucel (hydroxypropylcellulose) (HPC)
  T/C: 141 % of control

## O=NN(CCF)C(=O)NC1CCCCC1
dose: 25.0 mg/kg/injection, schedule: Q04DX003 (ip), vehicle: saline with Tween-80
  survivor count: 3 of 6
dose: 37.5 mg/kg/injection, schedule: Q04DX003 (ip), vehicle: saline with Tween-80
  survivor count: 0 of 6
[4]
  survivor count: 0 of 6
[5]
  survivor count: 0 of 6

## CCOc1cc(/C=N\Nc2nncn2N)c(C)cc1N(CCCl)CCCl
dose: 100.0 mg/kg/injection, schedule: Q04DX003 (ip), vehicle: saline sonified
  survivor count: 6 of 6
dose: 200.0 mg/kg/injection, schedule: Q04DX003 (ip), vehicle: saline sonified
  survivor count: 2 of 6

## CC1(C)NC(=O)N(CCCCCCN2C(=O)NC(C)(C)C2=O)C1=O
[7]
  survivor count: 6 of 6

## COC1N(C2CC(O)C(CO)O2)C(=O)NC(=O)C1(F)Br (stereo not drawn)
dose: 266.0 mg/kg/injection, schedule: Q04DX003 (ip), vehicle: saline
  T/C: 127 % of control
dose: 400.0 mg/kg/injection, schedule: Q04DX003 (ip), vehicle: saline
  T/C: 136 % of control

## CCCCN(CCCC)C(=N)/C=C/c1ccccc1
dose: 25.0 mg/kg/injection, schedule: Q01DX005 (ip), vehicle: Klucel (hydroxypropylcellulose) (HPC)
  survivor count: 0 of 5
dose: 50.0 mg/kg/injection, schedule: Q01DX005 (ip), vehicle: Klucel (hydroxypropylcellulose) (HPC)
  survivor count: 0 of 5
dose: 100.0 mg/kg/injection, schedule: Q01DX005 (ip), vehicle: Klucel (hydroxypropylcellulose) (HPC)
  survivor count: 0 of 5
[7]
  survivor count: 0 of 5

## CCCCCCCCCCCCCCCCCC[N+]1(CC)CCCC1
[6]
  survivor count: 0 of 6
dose: 100.0 mg/kg/injection, schedule: Q01DX009 (ip), vehicle: saline
  survivor count: 0 of 6
[8]
  survivor count: 0 of 6

## COC1OC(C(C)O)C2OC(C)(C)OC12 (stereo not drawn)
[2]
  survivor count: 6 of 6

## CC(C)N1CCOC(c2cccc(C(F)(F)F)c2)C1 (stereo not drawn)
[8]
  survivor count: 4 of 6

## O=C(Nc1ccc2c(c1)Cc1ccccc1-2)c1cccc2ccccc12
dose: 6.25 mg/kg/injection, schedule: Q01DX005 (ip), vehicle: saline with Tween-80
  survivor count: 6 of 6
dose: 12.5 mg/kg/injection, schedule: Q01DX005 (ip), vehicle: saline with Tween-80
  survivor count: 6 of 6
dose: 25.0 mg/kg/injection, schedule: Q01DX005 (ip), vehicle: saline with Tween-80
  survivor count: 6 of 6
dose: 50.0 mg/kg/injection, schedule: Q01DX005 (ip), vehicle: saline with Tween-80
  survivor count: 5 of 5
dose: 100.0 mg/kg/injection, schedule: Q01DX005 (ip), vehicle: saline with Tween-80
  survivor count: 5 of 5

## c1ccc([P+](c2ccccc2)(c2ccccc2)c2ccccc2)cc1
dose: 5.0 mg/kg/injection, schedule: Q04DX003 (ip), vehicle: saline
  T/C: 136 and 140 % of control
dose: 7.5 mg/kg/injection, schedule: Q04DX003 (ip), vehicle: saline
  T/C: 147 % of control
dose: 10.0 mg/kg/injection, schedule: Q04DX003 (ip), vehicle: saline
  survivor count: 6 of 6

## N#CC(NCc1ccccc1)c1ccccc1 (stereo not drawn)
[3]
  survivor count: 0 of 6
